Reference: PubChem BioAssay AID1487 (National Center for Advancing Translational Sciences (NCATS), 2009)
Screen size: about 200,000 compounds; about 25 (0.01%) were called active. The shares of active, inactive and inconclusive entries below differ from those in the screen. The call rests on the fitted dose curve; in most records, active means well fitted inhibition curve with a large enough effect in the signal ratio, with a control signal flat (not every such curve was filed as active); inconclusive means small, poorly fitted or top-dose-only effect, or effect the other way, or a change in a side signal; inactive means flat fitted curve, though single readings scatter; the % refers to the signal ratio. Where the call is inconclusive, the potency comes from a doubtful curve fit.

Test: qHTS Assay for Modulators of Lamin A Splicing
Conditions: HeLa LMNA splicing GFP/RFP minigene ratio, 48 h; ratio change, negative = inhibition: at 46.1 µM (top of the series) unless noted
Method in brief: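 Read-out is the ratio of GFP to DsRed2 object intensity, acquired by 488 nm laser-scanning cytometry on HeLa lamin A-EGFP minigene reporter cells. Compound incubation 48 hrs at 37 °C in Opti-MEM with 2% FBS; DMSO 0.5% final.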
On the % scale 0 is the no-effect control and ±100 the full control effect; potency means the concentration at half of the fitted maximal effect.

SMILES	ratio change, negative = inhibition	Potency
COc1cc(C(=O)OC2CSCC2NC(=O)c2ccccc2)cc(OC)c1OC (configuration not stated)	inactive: -14.4% [at 46 µM]	
O=S(=O)(c1ccc(S(=O)(=O)N2CCOCC2)cc1)N1CCCC1	inconclusive: -3.06% [at 46 µM]	
COC(=O)C1NN=C(C(=O)c2ccc(Br)cc2)C1c1cccc(Br)c1 (configuration not stated)	inconclusive: -56.4%	
Cc1nn(C2CCS(=O)(=O)C2)c(Cl)c1/C=C/C(=O)OCC(=O)c1cc(C)n(-c2ccc(F)cc2)c1C (configuration not stated)		inconclusive: 12.6 µM [fluorescent, partial curve]
CCOC(=O)C1CCN(C(=O)CSc2n[nH]c(-c3ccc(OC)cc3)n2)CC1	inactive: 13.4% [at 46 µM]	
Cc1cc(=O)n(Cc2c(F)cccc2Cl)c2c1c(C)nn2C	inactive: -11.4% [at 46 µM]	
COc1ccc(CCNC(=O)Cn2c(-c3ccc(F)cc3)cc(C(C)=O)c2C)cc1OC	inconclusive: 6.52% [at 46 µM]	
O=C1c2ccccc2C(=O)N1CCCc1nc(-c2ccccn2)no1	inactive: -2.62%	
CSC1=N/C(=C\c2ccc(F)cc2)C(=O)S1	inconclusive: 0.72%	
CCC/C(=N\NC(=O)c1ccc(OC)c(OC)c1)c1ccccc1	inconclusive: -8.26% [at 46 µM]	
CC1CCCC(C)N1C(=O)Cn1c(SCC(=O)NCc2ccc3c(c2)OCO3)nc2ccccc21 (configuration not stated)	inconclusive: 8.63%	
COc1ccccc1Oc1c(C)oc2c(CN3CCN(C)CC3)c(O)ccc2c1=O	inactive: 3.36%	
Cc1noc(C)c1-c1ccc2ncnc(NCc3cccnc3)c2c1		active: 3.98 µM
COc1ccc(NS(=O)(=O)c2cccc(-c3n[nH]c(=S)n3Cc3ccccc3)c2)cc1	inconclusive: 13% [at 9.22 µM]	
CCOc1cc(C2C(C(=O)Nc3ccccc3)=C(C)Nc3ncnn32)cc(Br)c1O (configuration not stated)	inconclusive: 12% [at 46 µM]	
COc1ccc(NC(=O)CN2C(=O)CSc3ccc(S(=O)(=O)N(C)C)cc32)cc1OC	inconclusive: 22.5% [at 46 µM]	
COc1cc(/C=N/Nc2nc3ccccc3o2)cc(OC)c1O	inactive: 4.24%	
Cc1nc([N+](=O)[O-])c(Br)n1CC(=O)c1ccc(Cl)cc1		inconclusive: 35.5 µM [cytotoxic, single point]
Cc1ccc(NC(=O)Cn2c(CCC(=O)O)ccc2-c2cccs2)cc1Cl	inactive: 10.8% [at 46 µM]	
Cc1nc(COC(=O)c2cc(O)c3ccccc3c2O)cs1	inconclusive: -13.7% [at 46 µM]	
O=C(O)c1ccc(Sc2nnnn2-c2ccccc2)c([N+](=O)[O-])c1	inactive: 1.45%	

SMILES	ratio change, negative = inhibition	Potency
C=C(C)CNC(=S)NNC(=O)CCn1c2ccccc2c2ccccc21		inconclusive: 35.5 µM [fluorescent, single point]
Cc1c(NS(=O)(=O)CC23CCC(CC2=O)C3(C)C)c(=O)n(-c2ccccc2)n1C (configuration not stated)	inactive: 1.76%	
COc1ccc(C(=O)Nc2cc(C)on2)cc1S(=O)(=O)N1CC(c2ccccc2)CC1=O (configuration not stated)	inactive: 16.6% [at 9.22 µM]	
CC(=O)CCc1oc2ccc(C)cc2c1-c1ccc(C)o1	inconclusive: -8.1% [at 46 µM]	
O=C(COC(=O)c1ccccc1Br)Nc1cc(S(=O)(=O)N2CCOCC2)ccc1N1CCCC1	inconclusive: 1.14% [at 46 µM]	
COc1cc(SC)ccc1C(=O)N1CCN(c2ccccc2OC)CC1	inconclusive: -9.52% [at 46 µM]	
CCc1c(C)nc(SCc2ccccn2)[nH]c1=O	inconclusive: -47.8% [at 46 µM]	
Cc1nc(NCC2CCCO2)[nH]c(=O)c1CCC(C)C (configuration not stated)	inactive: 6.54%	
COc1ccccc1NC(=O)C(C)Sc1nnnn1C (configuration not stated)	inconclusive: 14.8%	
Cc1nonc1CN(C)C(=O)CC1C(=O)NCCN1Cc1cccc(C(F)(F)F)c1 (configuration not stated)	inconclusive: -11.2% [at 46 µM]	
Fc1ccccc1N1CCN(c2ncnc3c2nc2n3CCCCC2)CC1	inconclusive: -16.9% [at 46 µM]	
COC(=O)N/N=C/c1cc(C)n(-c2cccc3ccccc23)c1C	inconclusive: 0.184%	
Cc1ccc(CNC(=O)CCS(=O)(=O)c2cc3c(cc2Cl)NC(=O)CO3)cc1	inconclusive: -9.58% [at 46 µM]	
CC(CCc1ccccc1)NC(=O)c1nnc(Cc2ccc(F)cc2)o1 (configuration not stated)	inconclusive: -0.887%	
O=C(CCc1nnc(-c2ccc3c(c2)OCO3)o1)N1CCC(c2ccc(F)cc2)C1 (configuration not stated)		inconclusive: 22.4 µM [activator, single point]
O=C(NCc1ccc(F)cc1)c1cc(Sc2ccc(F)cc2F)nc2ccccc12	inconclusive: -21% [at 46 µM]	
Cc1nn(C(=O)c2ccccc2)c(C)c1S(=O)(=O)N1CCOCC1	inconclusive: -1.45% [at 46 µM]	
CCOc1ccc(S(=O)(=O)N2CCN(C(=S)NCc3ccco3)CC2)cc1		inconclusive: 12.6 µM [fluorescent, single point]
O=C(Nc1ccc(-c2nc3ccccc3[nH]2)cc1)c1ccc(N2C(=O)CCC2=O)cc1	inconclusive: -3.99%	
CC(=O)Nc1ccc(NC(=O)c2cccc(-c3cc4ccccc4oc3=O)c2)cc1	inconclusive: -9.92% [at 46 µM]	
CCCCNC(=O)NNC(=O)c1ccc(F)cc1	inconclusive: -1.01%	

SMILES	ratio change, negative = inhibition	Potency
CCC(=O)N1c2ccccc2CC1C(=O)NCCc1ccccc1Cl (configuration not stated)	inconclusive: -6.16% [at 46 µM]	
COCCn1c(=O)[nH]c(=O)c2c1nc(-c1ccc(-c3ccc(Cl)cc3[N+](=O)[O-])o1)n2Cc1ccccc1	inconclusive: -29.1%	
O=C(Cc1ccccc1F)Nc1nc(-c2cccs2)cs1	inconclusive: -40%	
CCN(CC)S(=O)(=O)c1ccc(C)c(NC(=O)CSc2nc3ccc(C)cc3[nH]2)c1		inconclusive: 35.5 µM [fluorescent, single point]
CC(C)(C)NC[C@H](O)COc1cccc2c1CCCC2=O	inconclusive: -14.5%	
COC(=O)c1ccc(CN(C(C)=O)c2ccccc2)o1	inactive: -0.201%	
COc1ccccc1OCC(=O)Nc1nnc(-c2ccco2)s1	inactive: -4.48%	
Cc1ccc(Nc2nc3ccccc3s2)cc1	inconclusive: 6.12%	
CCCC(=O)Nc1ccc2nc(SCC(=O)N3CCCC3)sc2c1	inconclusive: 15.5% [at 46 µM]	
C[N+](C)(C)CCOC(N)=O	inconclusive: -16.6%	inconclusive: 14.1 µM [inhibitor, single point]
O=C(COC(=O)c1ccc(Cl)nc1)Nc1ccccc1OC(F)F	inactive: -7.69% [at 46 µM]	
COc1ccc(CN2CCc3nc(Nc4ccccc4)ncc3C2)c(OC)c1OC	inconclusive: -5.74% [at 46 µM]	
c1ccc(C2NCCc3ccccc32)cc1 (configuration not stated)	inactive: -15% [at 46 µM]	
NNc1nc(-c2ccccc2)cs1	inactive: 5.02% [at 46 µM]	
CCc1sc(C(C2C(=O)CC(C)(C)CC2=O)C2C(=O)CC(C)(C)CC2=O)cc1[N+](=O)[O-]	inconclusive: -40.3% [at 46 µM]	
O=C(CCCc1ccccc1)Nc1nnc(C(F)(F)F)s1	inconclusive: -13.8% [at 46 µM]	
COc1ccc(OC)c(NC(=O)CCc2c(C)nn(-c3ccc(N4CCCC4)nn3)c2C)c1	inactive: -3.5% [at 46 µM]	
CC1=C/C(=N\NC(=S)Nc2cccnc2)CC(C)(C)C1	inconclusive: -63.7% [at 46 µM]	
COc1cccc(Nc2ncc3nc(CCc4ccccc4)c(=O)n(C)c3n2)c1	inactive: 16.2%	
Nc1c(N=Nc2ccccc2F)c(=O)[nH]n1-c1ccccc1	inactive: -0.428%	
O=[N+]([O-])c1ccccc1CNC1CCCCCC1	inactive: -0.929% [at 46 µM]	

SMILES	ratio change, negative = inhibition	Potency
CCCCNS(=O)(=O)c1ccc(NC(=O)Cc2ccc(OC)cc2)cc1		inconclusive: 20 µM [inhibitor, single point]
COc1ccccc1NC(=O)N1CCCC1C(=O)NCc1ccccc1 (configuration not stated)	inconclusive: 17.6%	
O=C(COc1ccc([N+](=O)[O-])cc1)NCC1(N2CCOCC2)CCCCC1	inconclusive: 13.9% [at 46 µM]	
Cc1cnc(CNc2ncnc3ccc(-c4c(C)noc4C)cc23)cn1		active: 7.08 µM
CC1/C(=N/O)CC(c2ccco2)NC1c1ccco1 (configuration not stated)	inactive: -3.34%	
C/C(N)=C(/C#N)C(=O)COC(=O)c1cc(-c2ccc(Br)cc2)nc2ccccc12	inconclusive: 1.69%	
CC(C)CC(=O)Nc1ccc(S(=O)(=O)Nc2cc3c(cc2N2CCOCC2)n(C)c(=O)c(=O)n3C)cc1	inactive: -0.955% [at 46 µM]	
Cc1ccc(NC(=O)c2cn3c4c(ccc(Cl)c4c2=O)OC(C)C3)c(C)c1 (configuration not stated)	inconclusive: -2.35% [at 46 µM]	
Cc1nc2sccn2c(=O)c1CCN1CCC(=C(c2ccc(F)cc2)c2ccc(F)cc2)CC1		inconclusive: 35.5 µM [falling, single point]
CCCc1cc(=O)[nH]c(SCC(=O)c2cc(C)n(C)c2C)n1	inactive: 5.99%	
CC[N+](CC)(CCO)CCCN1C(=O)C2CC=C(Cl)CC2C1=O (configuration not stated)	inactive: 10.1%	
CCOc1ccc(CNC(=S)N/N=C/c2cccnc2)cc1	inconclusive: -18.6%	
O=C1c2ccccc2OC2(C=Cc3ccccc3O2)N1Cc1ccccc1 (configuration not stated)	inconclusive: -1.19%	
COc1cc(NC(=O)Cn2ncc(Cl)c(Cl)c2=O)c(C)cc1[N+](=O)[O-]		inconclusive: 35.5 µM [falling, single point]
O=C(O)c1ccccc1C(=O)Nc1ccc(-n2nc(C(F)(F)F)cc2C(F)(F)F)cc1	inconclusive: 22.6% [at 46 µM]	
CCN(CC)CCCC1(CN)OCCc2ccccc21 (configuration not stated)	inactive: -12.4%	
CC(=O)[C@H]1CC[C@H]2[C@@H]3C=CC4=CC(=O)CC[C@@]4(C)[C@H]3CC[C@]12C	inconclusive: -32.7% [at 22.9 µM]	
O=C(COC(=O)C1CC(=O)N(Cc2ccccc2)C1)Nc1ccc(Cl)cc1F (configuration not stated)	inconclusive: -12.7% [at 46 µM]	

6 compounds picked at random from those above, as already listed:
SMILES	ratio change, negative = inhibition	Potency
CCCCNC(=O)NNC(=O)c1ccc(F)cc1	inconclusive: -1.01%	
CCOc1cc(C2C(C(=O)Nc3ccccc3)=C(C)Nc3ncnn32)cc(Br)c1O (configuration not stated)	inconclusive: 12% [at 46 µM]	
CC1/C(=N/O)CC(c2ccco2)NC1c1ccco1 (configuration not stated)	inactive: -3.34%	
COc1ccccc1Oc1c(C)oc2c(CN3CCN(C)CC3)c(O)ccc2c1=O	inactive: 3.36%	
COc1ccc(NC(=O)CN2C(=O)CSc3ccc(S(=O)(=O)N(C)C)cc32)cc1OC	inconclusive: 22.5% [at 46 µM]	
COc1cc(/C=N/Nc2nc3ccccc3o2)cc(OC)c1O	inactive: 4.24%	
